Among the data in the supplement of paper PMC10849652 are log2 fold change values, retold here.

The chains behind the UniProt entries cited, without tags or fusion partners. Where a name states a change or a piece, a line headed by the entry shows the natural chain unless it says otherwise.
UniProt P33316: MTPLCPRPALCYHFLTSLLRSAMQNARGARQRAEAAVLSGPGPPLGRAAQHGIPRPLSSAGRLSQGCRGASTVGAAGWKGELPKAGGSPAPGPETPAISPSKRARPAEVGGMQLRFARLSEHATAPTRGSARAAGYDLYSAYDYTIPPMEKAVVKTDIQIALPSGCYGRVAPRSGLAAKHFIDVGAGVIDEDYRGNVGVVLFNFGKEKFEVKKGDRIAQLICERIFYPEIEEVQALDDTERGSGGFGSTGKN
UniProt O95620: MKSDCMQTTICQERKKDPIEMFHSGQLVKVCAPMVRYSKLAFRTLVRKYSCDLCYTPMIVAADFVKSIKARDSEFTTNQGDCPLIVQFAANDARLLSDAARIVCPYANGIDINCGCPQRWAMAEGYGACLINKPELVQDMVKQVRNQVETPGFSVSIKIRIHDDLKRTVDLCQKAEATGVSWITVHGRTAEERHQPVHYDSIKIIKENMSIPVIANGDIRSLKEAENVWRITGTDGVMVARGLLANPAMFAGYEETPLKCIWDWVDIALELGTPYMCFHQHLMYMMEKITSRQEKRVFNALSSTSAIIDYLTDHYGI
UniProt Q9UNI6, whole entry, looked up: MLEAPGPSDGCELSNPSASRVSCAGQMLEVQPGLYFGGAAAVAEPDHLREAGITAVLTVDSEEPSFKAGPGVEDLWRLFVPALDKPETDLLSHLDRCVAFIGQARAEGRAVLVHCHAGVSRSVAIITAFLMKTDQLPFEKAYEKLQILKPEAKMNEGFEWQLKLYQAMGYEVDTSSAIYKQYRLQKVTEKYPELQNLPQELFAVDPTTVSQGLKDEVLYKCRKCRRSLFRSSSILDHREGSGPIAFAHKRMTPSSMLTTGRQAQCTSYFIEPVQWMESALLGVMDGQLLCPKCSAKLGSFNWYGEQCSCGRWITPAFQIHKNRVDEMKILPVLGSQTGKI
UniProt P42126: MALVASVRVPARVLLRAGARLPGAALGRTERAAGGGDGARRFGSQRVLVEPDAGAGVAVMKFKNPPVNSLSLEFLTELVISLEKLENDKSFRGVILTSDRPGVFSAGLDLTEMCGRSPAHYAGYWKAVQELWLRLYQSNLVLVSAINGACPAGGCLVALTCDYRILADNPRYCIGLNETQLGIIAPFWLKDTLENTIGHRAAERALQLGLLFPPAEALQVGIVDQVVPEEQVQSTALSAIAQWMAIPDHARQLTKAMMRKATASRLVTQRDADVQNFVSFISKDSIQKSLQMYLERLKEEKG
UniProt Q9Y295: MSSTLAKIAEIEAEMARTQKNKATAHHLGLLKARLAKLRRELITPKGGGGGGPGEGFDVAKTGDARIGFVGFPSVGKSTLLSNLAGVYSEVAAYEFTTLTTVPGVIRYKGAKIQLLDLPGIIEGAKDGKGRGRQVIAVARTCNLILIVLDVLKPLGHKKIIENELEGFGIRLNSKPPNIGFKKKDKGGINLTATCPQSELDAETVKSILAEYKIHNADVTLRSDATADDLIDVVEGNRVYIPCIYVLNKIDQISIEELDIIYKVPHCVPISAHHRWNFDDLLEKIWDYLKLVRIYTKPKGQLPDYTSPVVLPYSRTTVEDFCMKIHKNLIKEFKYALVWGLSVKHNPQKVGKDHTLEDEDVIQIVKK
UniProt Q9BZ29: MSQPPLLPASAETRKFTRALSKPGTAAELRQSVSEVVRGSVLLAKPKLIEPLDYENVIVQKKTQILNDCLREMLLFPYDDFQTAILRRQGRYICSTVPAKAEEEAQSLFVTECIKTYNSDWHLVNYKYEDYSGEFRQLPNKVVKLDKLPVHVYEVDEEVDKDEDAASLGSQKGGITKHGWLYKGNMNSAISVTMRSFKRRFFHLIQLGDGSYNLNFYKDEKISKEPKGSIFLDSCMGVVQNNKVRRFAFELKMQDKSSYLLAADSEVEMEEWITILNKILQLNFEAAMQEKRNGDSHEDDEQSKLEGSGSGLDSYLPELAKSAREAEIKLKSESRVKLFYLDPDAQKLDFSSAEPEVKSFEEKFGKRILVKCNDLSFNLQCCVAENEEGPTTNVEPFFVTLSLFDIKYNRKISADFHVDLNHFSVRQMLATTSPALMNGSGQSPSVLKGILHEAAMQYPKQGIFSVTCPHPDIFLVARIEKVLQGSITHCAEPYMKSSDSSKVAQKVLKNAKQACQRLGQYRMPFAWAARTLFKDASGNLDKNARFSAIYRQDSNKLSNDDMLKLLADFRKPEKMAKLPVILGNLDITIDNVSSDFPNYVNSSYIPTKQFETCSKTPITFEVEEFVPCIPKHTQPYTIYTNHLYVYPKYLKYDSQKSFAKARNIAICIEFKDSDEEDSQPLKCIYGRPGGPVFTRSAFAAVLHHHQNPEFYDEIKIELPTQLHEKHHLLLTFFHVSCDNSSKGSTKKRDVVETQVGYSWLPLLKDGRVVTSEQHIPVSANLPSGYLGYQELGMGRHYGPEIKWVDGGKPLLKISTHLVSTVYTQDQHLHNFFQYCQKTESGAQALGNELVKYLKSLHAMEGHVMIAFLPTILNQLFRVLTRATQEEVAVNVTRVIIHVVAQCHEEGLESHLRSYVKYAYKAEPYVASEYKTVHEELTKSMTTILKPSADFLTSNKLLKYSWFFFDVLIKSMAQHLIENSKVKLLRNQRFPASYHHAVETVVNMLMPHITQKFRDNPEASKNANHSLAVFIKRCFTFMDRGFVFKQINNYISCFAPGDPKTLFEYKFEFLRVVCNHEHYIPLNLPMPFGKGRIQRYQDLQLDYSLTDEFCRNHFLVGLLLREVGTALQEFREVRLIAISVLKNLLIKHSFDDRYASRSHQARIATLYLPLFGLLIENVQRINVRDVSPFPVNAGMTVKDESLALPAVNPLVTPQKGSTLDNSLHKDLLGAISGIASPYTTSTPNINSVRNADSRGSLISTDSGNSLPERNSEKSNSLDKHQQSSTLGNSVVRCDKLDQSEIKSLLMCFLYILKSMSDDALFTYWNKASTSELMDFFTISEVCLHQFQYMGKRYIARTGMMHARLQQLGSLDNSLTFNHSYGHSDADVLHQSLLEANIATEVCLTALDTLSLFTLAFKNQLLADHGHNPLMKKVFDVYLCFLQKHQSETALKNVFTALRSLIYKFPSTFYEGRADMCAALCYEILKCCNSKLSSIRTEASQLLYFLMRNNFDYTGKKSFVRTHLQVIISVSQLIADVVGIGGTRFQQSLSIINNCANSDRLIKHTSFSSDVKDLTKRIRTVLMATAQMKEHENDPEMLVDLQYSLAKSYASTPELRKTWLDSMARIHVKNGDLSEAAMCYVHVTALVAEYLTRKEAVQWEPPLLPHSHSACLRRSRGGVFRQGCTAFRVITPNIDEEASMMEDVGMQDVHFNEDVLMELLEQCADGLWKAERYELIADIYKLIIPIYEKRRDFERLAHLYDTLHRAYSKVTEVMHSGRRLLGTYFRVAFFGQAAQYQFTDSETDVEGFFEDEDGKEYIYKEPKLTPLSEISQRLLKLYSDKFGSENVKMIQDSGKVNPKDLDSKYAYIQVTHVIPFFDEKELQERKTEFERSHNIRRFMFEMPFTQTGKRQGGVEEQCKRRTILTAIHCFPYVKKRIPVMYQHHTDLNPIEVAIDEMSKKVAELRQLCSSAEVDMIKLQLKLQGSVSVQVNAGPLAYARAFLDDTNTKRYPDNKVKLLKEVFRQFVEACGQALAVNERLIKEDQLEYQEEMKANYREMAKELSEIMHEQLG
UniProt Q9BQC3: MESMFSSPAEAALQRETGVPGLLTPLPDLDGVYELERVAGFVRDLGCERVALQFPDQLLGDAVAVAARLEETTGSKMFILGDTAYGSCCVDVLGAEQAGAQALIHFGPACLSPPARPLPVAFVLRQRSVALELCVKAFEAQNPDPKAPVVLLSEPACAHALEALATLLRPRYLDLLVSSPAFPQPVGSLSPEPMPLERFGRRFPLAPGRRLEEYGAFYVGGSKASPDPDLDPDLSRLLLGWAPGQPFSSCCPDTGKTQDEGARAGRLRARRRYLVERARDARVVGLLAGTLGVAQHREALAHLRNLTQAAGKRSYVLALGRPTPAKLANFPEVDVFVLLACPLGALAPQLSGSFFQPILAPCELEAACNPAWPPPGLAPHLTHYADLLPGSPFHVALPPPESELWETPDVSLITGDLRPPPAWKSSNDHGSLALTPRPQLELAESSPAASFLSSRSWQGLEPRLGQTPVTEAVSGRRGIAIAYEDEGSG
UniProt Q16610: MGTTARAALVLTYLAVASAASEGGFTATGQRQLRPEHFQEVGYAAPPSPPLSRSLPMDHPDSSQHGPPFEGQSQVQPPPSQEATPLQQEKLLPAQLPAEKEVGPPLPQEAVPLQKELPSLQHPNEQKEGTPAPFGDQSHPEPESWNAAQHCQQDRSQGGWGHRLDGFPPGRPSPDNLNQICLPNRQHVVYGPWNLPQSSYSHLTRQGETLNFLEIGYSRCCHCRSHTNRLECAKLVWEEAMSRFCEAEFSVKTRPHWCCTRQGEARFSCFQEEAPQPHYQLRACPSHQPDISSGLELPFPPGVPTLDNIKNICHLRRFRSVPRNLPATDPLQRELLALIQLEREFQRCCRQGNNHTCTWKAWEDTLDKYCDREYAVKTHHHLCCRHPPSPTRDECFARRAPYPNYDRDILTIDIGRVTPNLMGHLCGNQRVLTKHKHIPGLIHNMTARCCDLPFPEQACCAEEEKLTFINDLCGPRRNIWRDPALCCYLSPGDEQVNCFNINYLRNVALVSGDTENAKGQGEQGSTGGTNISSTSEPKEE
UniProt Q9NTX5: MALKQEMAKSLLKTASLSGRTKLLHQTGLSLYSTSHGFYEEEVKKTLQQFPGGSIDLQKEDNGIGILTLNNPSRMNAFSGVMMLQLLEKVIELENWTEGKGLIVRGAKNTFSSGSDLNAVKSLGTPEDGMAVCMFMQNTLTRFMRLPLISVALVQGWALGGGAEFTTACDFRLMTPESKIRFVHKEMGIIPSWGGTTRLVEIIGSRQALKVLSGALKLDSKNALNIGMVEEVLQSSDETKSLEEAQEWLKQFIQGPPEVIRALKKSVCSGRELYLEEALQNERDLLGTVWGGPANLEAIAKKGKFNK
UniProt Q9BTV6: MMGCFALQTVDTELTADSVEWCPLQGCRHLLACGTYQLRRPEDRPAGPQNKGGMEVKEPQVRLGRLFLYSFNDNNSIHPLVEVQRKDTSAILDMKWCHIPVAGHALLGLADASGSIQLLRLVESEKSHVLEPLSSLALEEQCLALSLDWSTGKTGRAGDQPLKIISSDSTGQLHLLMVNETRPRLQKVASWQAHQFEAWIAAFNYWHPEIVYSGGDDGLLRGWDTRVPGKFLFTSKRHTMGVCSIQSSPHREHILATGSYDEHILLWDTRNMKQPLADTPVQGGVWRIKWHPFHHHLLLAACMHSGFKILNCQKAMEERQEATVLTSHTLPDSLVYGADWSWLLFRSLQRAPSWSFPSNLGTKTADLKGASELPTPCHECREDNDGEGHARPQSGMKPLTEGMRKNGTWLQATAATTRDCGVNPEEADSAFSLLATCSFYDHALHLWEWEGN
UniProt Q9P2X0: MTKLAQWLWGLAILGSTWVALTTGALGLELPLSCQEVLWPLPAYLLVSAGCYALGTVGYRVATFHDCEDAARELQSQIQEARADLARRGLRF
UniProt Q7Z388: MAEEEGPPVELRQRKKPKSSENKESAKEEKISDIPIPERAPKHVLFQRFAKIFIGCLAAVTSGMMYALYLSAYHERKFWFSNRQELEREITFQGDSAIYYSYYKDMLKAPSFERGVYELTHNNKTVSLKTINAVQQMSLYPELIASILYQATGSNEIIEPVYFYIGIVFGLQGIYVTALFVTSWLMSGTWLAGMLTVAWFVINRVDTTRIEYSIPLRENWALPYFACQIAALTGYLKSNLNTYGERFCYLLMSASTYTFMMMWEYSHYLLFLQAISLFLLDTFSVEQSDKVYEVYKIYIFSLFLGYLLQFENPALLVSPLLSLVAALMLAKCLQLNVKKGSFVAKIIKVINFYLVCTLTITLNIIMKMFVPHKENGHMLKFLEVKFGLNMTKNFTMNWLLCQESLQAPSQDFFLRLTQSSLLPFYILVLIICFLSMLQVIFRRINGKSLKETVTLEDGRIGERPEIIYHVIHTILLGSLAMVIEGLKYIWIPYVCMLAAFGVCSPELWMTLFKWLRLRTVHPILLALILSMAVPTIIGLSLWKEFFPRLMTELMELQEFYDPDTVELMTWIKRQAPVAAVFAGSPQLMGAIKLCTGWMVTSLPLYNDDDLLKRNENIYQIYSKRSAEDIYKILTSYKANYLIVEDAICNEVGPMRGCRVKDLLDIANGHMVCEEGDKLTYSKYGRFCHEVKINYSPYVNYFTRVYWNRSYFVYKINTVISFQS
UniProt O75190: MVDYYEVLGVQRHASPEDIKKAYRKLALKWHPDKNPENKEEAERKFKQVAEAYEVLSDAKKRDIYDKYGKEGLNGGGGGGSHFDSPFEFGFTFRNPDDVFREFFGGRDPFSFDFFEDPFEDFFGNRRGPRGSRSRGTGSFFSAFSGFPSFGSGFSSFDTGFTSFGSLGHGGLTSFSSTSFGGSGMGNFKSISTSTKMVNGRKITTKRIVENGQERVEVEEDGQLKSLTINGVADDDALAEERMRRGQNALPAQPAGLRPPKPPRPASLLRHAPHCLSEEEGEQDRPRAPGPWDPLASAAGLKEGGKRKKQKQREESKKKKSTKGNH

This is one part of the list.

Compound in the first assay: CCCS(=O)(=O)Nc1ccc(F)c(C(=O)c2c[nH]c3ncc(-c4ccc(Cl)cc4)cc23)c1F [vemurafenib]
The assay can be described thus: log2 fold change, soluble protein after heating vs DMSO (PISA); higher = thermal stabilisation; K562 cells, 10 uM, 30 min; active = over 0.2 and 3.5 SD of the protein, either way, in both replicates (recomputed). The method, boiled down:
(§1)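 Soluble protein was quantified by TMTpro 16plex LC-MS/MS after channel sums were equalised. It was obtained as the supernatant after 21,000xg for 90 min from pooled aliquots of K562 cells (2×10^6 cells/mL, 10 μM compound, 30 min) heated for 3 min across 48°C-58°C and extracted in PBS with 0.5% NP-40 at 4°C. Thermal stability values are relative to control samples and come from duplicates. They are given as log2 fold changes.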
As for EBP (UniProt Q15125), the log2 fold change was inactive: -0.026.

Take DUT (UniProt P33316): the log2 fold change was inactive: -0.029.

For the target DPF2 (UniProt Q92785), the log2 fold change is inactive: -0.035.

In the case of EDARADD (UniProt Q8WWZ3), the log2 fold change was inactive: 0.035.

On to DUS4L (UniProt O95620), for which the log2 fold change is inactive: -0.034.

Turning to DR1 (UniProt Q01658), the log2 fold change is inactive: -0.045.

Consider DUSP12 (UniProt Q9UNI6), for which the log2 fold change was inactive: 0.037.

For the target EAF1 (UniProt Q96JC9), the log2 fold change was inactive: -0.083.

Take DPH1 (UniProt Q9BZG8): the log2 fold change is inactive: 0.093.

Turning to DPY30 (UniProt Q9C005), the log2 fold change was inactive: 0.348.

Consider DNMT1 isoform 2 (UniProt P26358), for which the log2 fold change was inactive: 0.008.

Turning to DNAJC3 (UniProt Q13217), the log2 fold change is inactive: -0.067.

For the target DSG2 (UniProt Q14126), the log2 fold change is inactive: -0.016.

Regarding ECI1 (UniProt P42126), the log2 fold change was inactive: -0.027.

Turning to DRG1 (UniProt Q9Y295), the log2 fold change is inactive: -0.027.

With DSTN (UniProt P60981), the log2 fold change was inactive: 0.027.

With DOCK9 isoform 4 (UniProt Q9BZ29), the log2 fold change was inactive: -0.063.

For DPH2 (UniProt Q9BQC3), the log2 fold change is inactive: -0.019.

As to DSC2 (UniProt Q02487), the log2 fold change is inactive: -0.021.

DYNC1LI1 (UniProt Q9Y6G9): the log2 fold change is inactive: -0.001.

Turning to ECM1 isoform 4 (UniProt Q16610), the log2 fold change was inactive: 0.061.

Compound in the next assay: CCCS(=O)(=O)Nc1ccc(F)c(C(=O)c2c[nH]c3ncc(Cl)cc23)c1F
The assay is described as above. In outline: as §1
In the case of ECHDC1 (UniProt Q9NTX5), the log2 fold change is inactive: -0.02.

In the case of DNAJA3 (UniProt Q96EY1), the log2 fold change is inactive: 0.075.

Consider DPH7 (UniProt Q9BTV6), for which the log2 fold change is inactive: -0.062.

Turning to DPM3 isoform 2 (UniProt Q9P2X0), the log2 fold change is inactive: -0.065.

Consider EARS2 isoform 2 (UniProt Q5JPH6), for which the log2 fold change is inactive: -0.027.

As to DST (UniProt Q03001), the log2 fold change is inactive: -0.052.

On to DPM1 (UniProt O60762), for which the log2 fold change was inactive: 0.023.

ECE1 (UniProt P42892): the log2 fold change was inactive: 0.08.

Regarding EDF1 (UniProt O60869), the log2 fold change is inactive: -0.049.

For the target DPY19L4 (UniProt Q7Z388), the log2 fold change was inactive: -0.146.

Regarding DNAJB6 (UniProt O75190), the log2 fold change is inactive: 0.025.

With EDEM1 (UniProt Q92611), the log2 fold change is inactive: 0.08.

For DNAJB4 (UniProt Q9UDY4), the log2 fold change is inactive: 0.064.

With EBP (UniProt Q15125), the log2 fold change is inactive: -0.003.

For the target DUT (UniProt P33316), the log2 fold change is inactive: -0.003.

On to DPF2 (UniProt Q92785), for which the log2 fold change was inactive: -0.006.

Turning to EDARADD (UniProt Q8WWZ3), the log2 fold change is inactive: -0.094.

Turning to DUS4L (UniProt O95620), the log2 fold change is inactive: -0.038.

For DR1 (UniProt Q01658), the log2 fold change was inactive: -0.085.

For the target DUSP12 (UniProt Q9UNI6), the log2 fold change was inactive: 0.036.

On to EAF1 (UniProt Q96JC9), for which the log2 fold change was inactive: -0.1.

Consider DPH1 (UniProt Q9BZG8), for which the log2 fold change was inactive: -0.019.

For DPY30 (UniProt Q9C005), the log2 fold change is inactive: 0.15.

As to DNMT1 isoform 2 (UniProt P26358), the log2 fold change was inactive: 0.021.

Regarding DNAJC3 (UniProt Q13217), the log2 fold change is inactive: -0.02.

Consider DSG2 (UniProt Q14126), for which the log2 fold change was inactive: -0.049.

Take ECI1 (UniProt P42126): the log2 fold change is inactive: 0.001.

Take DRG1 (UniProt Q9Y295): the log2 fold change was inactive: -0.02.

Turning to DSTN (UniProt P60981), the log2 fold change is inactive: 0.002.

On to DOCK9 isoform 4 (UniProt Q9BZ29), for which the log2 fold change was inactive: 0.037.

Turning to DPH2 (UniProt Q9BQC3), the log2 fold change is inactive: -0.049.

Regarding DSC2 (UniProt Q02487), the log2 fold change was inactive: -0.083.

With DYNC1LI1 (UniProt Q9Y6G9), the log2 fold change was inactive: 0.009.

With ECM1 isoform 4 (UniProt Q16610), the log2 fold change is inactive: -0.075.
